Data published in patent US20210308089A1, “METHODS OF TREATING AND/OR PREVENTING VIRAL INFECTIONS AND/OR DISEASES CAUSED BY VIRUSES IN A SUBJECT IN NEED THEREOF” (priority 2020, published 2021).
The source gives many values for each of these; only a part stands here.

System: patients of the REDUCE-IT and earlier EPA placebo-controlled trials
Assay: Example 3: adverse events by risk ratio, icosapent ethyl vs placebo (candidate categories; infectious disease terms of interest)
Settings: R-I; Periodontitis

SMILES: CC/C=C\C/C=C\C/C=C\C/C=C\C/C=C\CCCC(=O)OCC [icosapent ethyl, eicosapentaenoic acid ethyl ester]
- Risk Ratio (95% CI): 1.667 (0.399 to 6.971) −2
